Assay results as given in patent US20090111753A1, “Nogo-A Polypeptide Fragments, Variant Nogo Receptor-1 Polypeptides, and Uses Thereof” (Yale University, priority 2004, published 2009).
No constants are given. Whether binding was seen depends on the method and setting. Some results given as binding are weak or reduced against the parent protein; the word gives no strength.

Tests used:
Assay in all cases: AP-ligand binding, COS-7
[1] = target: T1, human NgR1 alanine mutant 210 (human) (UniProt Q9BZR6)
T1 sequence: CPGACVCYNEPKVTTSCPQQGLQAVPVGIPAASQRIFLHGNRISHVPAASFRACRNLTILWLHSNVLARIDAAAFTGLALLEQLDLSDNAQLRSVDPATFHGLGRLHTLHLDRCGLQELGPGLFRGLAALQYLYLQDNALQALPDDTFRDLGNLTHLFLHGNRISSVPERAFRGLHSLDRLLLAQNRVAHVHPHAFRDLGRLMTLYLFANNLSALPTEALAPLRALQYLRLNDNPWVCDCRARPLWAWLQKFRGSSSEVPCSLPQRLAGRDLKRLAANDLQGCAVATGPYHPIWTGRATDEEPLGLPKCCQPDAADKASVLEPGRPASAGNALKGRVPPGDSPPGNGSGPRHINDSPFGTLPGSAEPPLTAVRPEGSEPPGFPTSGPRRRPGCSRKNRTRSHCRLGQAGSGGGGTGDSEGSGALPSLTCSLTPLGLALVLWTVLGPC

[2] = target: T2, human NgR1 alanine mutant 250 (human) (UniProt Q9BZR6)
T2 sequence: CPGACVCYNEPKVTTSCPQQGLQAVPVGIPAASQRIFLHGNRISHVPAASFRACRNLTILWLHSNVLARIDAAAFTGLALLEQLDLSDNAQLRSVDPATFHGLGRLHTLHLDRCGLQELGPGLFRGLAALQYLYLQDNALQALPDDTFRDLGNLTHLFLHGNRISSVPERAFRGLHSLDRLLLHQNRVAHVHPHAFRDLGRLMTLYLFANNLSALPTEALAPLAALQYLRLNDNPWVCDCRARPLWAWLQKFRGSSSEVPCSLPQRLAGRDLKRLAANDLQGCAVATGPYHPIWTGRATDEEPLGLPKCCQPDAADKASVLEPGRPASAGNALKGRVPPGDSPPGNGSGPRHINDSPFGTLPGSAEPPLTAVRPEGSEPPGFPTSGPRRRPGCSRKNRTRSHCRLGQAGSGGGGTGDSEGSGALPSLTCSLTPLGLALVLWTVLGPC

[3] = target: T3, human NgR1 alanine mutant 61, 108, 131 (human) (UniProt Q9BZR6)
T3 sequence: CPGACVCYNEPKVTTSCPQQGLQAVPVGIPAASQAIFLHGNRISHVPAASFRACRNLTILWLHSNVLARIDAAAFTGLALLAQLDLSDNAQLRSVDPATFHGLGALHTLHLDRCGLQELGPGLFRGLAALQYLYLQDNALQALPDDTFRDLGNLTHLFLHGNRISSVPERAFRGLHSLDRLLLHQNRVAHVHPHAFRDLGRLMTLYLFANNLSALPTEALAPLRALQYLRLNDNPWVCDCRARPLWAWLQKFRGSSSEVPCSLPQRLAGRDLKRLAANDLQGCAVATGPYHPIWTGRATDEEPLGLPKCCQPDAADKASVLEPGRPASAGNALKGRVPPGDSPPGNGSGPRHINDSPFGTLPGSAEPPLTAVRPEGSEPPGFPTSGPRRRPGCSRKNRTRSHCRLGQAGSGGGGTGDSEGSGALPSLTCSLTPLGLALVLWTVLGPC

[4] = target: T4, human NgR1 alanine mutant 189, 191, 284 (human) (UniProt Q9BZR6)
T4 sequence: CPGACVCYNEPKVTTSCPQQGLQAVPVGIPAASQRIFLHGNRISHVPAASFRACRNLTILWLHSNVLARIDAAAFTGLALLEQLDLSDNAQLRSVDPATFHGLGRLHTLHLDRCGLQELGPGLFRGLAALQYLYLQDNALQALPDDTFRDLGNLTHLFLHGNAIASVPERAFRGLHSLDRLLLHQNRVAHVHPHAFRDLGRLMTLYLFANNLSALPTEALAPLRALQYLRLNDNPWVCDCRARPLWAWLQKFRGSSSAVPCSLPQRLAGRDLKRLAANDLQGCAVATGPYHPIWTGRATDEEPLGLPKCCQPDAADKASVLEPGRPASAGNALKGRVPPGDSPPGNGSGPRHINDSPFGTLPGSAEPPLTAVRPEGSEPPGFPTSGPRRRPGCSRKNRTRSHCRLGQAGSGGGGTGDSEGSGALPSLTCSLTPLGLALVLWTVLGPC

[5] = target: T5, human NgR1 alanine mutant 189, 191, 237 (human) (UniProt Q9BZR6)
T5 sequence: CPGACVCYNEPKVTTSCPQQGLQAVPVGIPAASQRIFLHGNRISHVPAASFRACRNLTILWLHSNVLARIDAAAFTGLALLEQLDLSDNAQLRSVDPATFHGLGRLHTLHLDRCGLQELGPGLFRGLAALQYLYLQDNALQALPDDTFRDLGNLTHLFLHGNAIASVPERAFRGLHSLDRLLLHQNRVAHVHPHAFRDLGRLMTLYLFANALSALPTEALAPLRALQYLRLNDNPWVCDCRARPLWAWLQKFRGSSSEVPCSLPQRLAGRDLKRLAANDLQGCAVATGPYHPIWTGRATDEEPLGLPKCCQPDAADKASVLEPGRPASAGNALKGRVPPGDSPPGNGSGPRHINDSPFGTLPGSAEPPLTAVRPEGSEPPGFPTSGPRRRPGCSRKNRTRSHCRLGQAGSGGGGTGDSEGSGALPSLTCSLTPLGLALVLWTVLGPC

[6] = target: T6, human NgR1 alanine mutant 63, 65, 87, 89 (human) (UniProt Q9BZR6)
T6 sequence: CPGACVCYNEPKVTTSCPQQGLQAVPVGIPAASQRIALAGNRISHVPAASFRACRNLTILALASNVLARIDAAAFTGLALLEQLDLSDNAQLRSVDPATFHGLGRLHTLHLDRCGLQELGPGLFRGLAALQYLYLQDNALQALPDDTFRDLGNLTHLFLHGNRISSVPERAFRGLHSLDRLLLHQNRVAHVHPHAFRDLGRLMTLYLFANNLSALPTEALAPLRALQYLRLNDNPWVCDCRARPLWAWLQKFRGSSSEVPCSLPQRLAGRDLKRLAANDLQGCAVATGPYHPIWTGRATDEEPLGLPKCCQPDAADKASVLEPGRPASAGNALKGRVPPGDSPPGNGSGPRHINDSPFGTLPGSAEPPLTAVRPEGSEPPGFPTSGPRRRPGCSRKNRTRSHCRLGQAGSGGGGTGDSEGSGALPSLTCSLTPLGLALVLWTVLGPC

Measured: binding

B1: AP-Nogo-66 (ligand, UniProt Q9NQC3 1055-1120, looked up)
chain: RIYKGVIQAIQKSDEGHPFRAYLESEVAISEELVQKYSNSALGHVNCTIKELRRLFLVDDLVDSLK
notes: domain: Nogo-66; construct described elsewhere (Fournier 2001); also called AP-Ng66; Ng66; not shown: alkaline phosphatase (AP); construct described elsewhere
binds: all assays above

B2: AP-fused Amino-Nogo fragment B4C (a.a. 950-1018) (ligand)
chain: LLPPDVSALATQAEIESIVKPKVLVKEAEKKLPSDTEKEDRSPSAIFSAELSKTSVVDLLYWRDIKKTG
notes: also called AmNg B4C; AP-B4C; not shown: alkaline phosphatase (AP), vector pcAP6
binds: all assays above
